Experimental findings from patent publication US20210270842A1 are described below.

The chains behind the UniProt entries cited, without tags or fusion partners. Where a name states a change or a piece, a line headed by the entry shows the natural chain unless it says otherwise.
UniProt P01042: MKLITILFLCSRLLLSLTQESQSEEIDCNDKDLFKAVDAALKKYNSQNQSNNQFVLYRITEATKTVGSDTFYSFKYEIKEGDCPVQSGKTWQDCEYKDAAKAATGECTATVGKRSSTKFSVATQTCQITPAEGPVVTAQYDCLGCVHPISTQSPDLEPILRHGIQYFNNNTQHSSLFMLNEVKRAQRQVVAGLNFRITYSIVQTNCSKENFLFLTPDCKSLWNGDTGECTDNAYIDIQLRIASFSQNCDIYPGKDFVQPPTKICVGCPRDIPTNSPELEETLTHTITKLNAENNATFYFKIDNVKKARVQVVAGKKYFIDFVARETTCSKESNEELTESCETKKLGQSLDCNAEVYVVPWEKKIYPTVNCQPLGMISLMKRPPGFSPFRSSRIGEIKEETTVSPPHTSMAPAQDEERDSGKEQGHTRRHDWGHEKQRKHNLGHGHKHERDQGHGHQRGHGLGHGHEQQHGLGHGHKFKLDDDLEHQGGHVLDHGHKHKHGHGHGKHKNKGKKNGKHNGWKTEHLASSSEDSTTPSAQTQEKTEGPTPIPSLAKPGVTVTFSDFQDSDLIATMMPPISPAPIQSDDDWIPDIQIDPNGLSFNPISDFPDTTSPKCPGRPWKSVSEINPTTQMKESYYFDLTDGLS

In test [1] the target is cleaved high molecular weight kininogen (HMWK) (human) (UniProt P01042). The test can be described thus: ELISA; Fab coated on plate, biotinylated antigen. Background: ELISA stands for enzyme-linked immunosorbent assay.
For test [2] the target is unchanged. The test can be described thus: ELISA; Fab coated on 96-well plate, biotinylated antigen, streptavidin-HRP.
The target is the same in test [3]. The test can be described thus: Fab passively immobilized on 384-well plate, biotinylated antigen, streptavidin-HRP.
For test [4] the target is unchanged. The test can be described thus: ELISA: Fab coated on 96-well plate, LowCross block, biotinylated antigen, streptavidin-HRP; signal over uncoated well.

These are yes or no findings as the source states them, for the method shown. Some binding calls cover weakened binding; strength is not graded here.

B1: 559B-M0064-H02 (Fab, V domains shown)
VH: EVQLLESGGGLVQPGGSLRLSCAASGFTFSQYIMGWVRQAPGKGLEWVSSIGSSGVTVYADSVKGRFTISRDNSKNTLYLQMNSLRAEDTAVYYCARGGGVTVLHAFDIWGQGTMVTVSS
VL: QSALTQPASVSGSPGQSITISCTGTSSDVGGYNYVSWYQQHPGKVPKLIIYEGNKRPSGVPDRFSGSKAGNTASLTVSGLQAEDEADYYCTAYGGHSRFYVFGTGTKVTVLG
Turning to B1, the binding entry in test [1], in test [2] and in test [3] was “binds” throughout.

B2: 559B-M0054-B11 (Fab, V domains shown)
VH: EVQLLESGGGLVQPGGSLRLSCAASGFTFSYYGMNWVRQAPGKGLEWVSVISPSGGLTVYADSVKGRFTISRDNSKNTLYLQMNSLRAEDTAMYYCATGFAVQHGGGAFDIWGQGTMVTVSS
VL: DIQMTQSPATLSMSPGERATLSCRASQSVTTYLAWYQQKPGQAPRLLIYDASIRATGVPARFSGSGSGTDFTLTISRLEPEDFAVYYCQQRTIWPLTFGGGTKVEIK
Turning to B2, the binding entry in test [2] and in test [4] was “binds” in each case.

B3: 559B-M0039-G07 (Fab, V domains shown)
VH: EVQLLESGGGLVQPGGSLRLSCAASGFTFSRYRMRWVRQAPGKGLEWVSGISPSGGWTYYADSVKGRFTISRDNSKNTLYLQMNSLRAEDTAVYYCTTDNGDYALAHWGQGTLVTVSS
VL: DIQMTQSPSSLSASVGDRVTITCRASQRIINYLNWYQQKPGKAPKLLIYAASSLQSGVPSRFSGSGSGTDFTLTISSLQPEDFATYYCQQSYSAPLTFGGGTRVEIK
Take B3: the binding entry in test [2] and in test [4] was “binds” throughout.

B4: 559B-M0003-A08 (Fab, V domains shown)
VH: EVQLLESGGGLVQPGGSLRLSCAASGFTFSAYVMRWVRQAPGKGLEWVSSIGSSGGPTYYADSVKGRFTISRDNSKNTLYLQMNSLRAEDTAVYYCARRGGSGSSHAFDIWGQGTMVTVSS
VL: DIQMTQSPSSLSASVGDRVTITCRASQSISSYLNWYQQKPGKAPKLLIYAASSLQSGVPSRFSGSGSGTDFTLTISSLQPEDSGTYYCQQYNSFPLTFGGGTKVEIK
With B4, the binding entry in test [2] and in test [4] was “binds” each time.

B5: 559B-M0067-G11 (Fab, V domains shown)
VH: EVQLLESGGGLVQPGGSLRLSCAASGFTFSPYEMVWVRQAPGKGLEWVSSIVPSGGWTVYADSVKGRFTISRDNSKNTLYLQMNSLRAEDTAVYYCASPSGRGLAFDIWGQGTMVTVSS
VL: DIQMTQSPGTLSLSPGERATLSCRASQSISSSYLAWYQQKPGQAPRLLIYGASSRATGVPDRFSGSGSGTEFTLTISSLQPEDFATYYCLQQKSYPYTFGQGTKVEIK
Turning to B5, the binding entry in test [2] and in test [4] was “binds” in each case.

B6: 559B-M0069-C09 (Fab, V domains shown)
VH: EVQLLESGGGLVQPGGSLRLSCAASGFTFSMYDMHWVRQAPGKGLEWVSSISSSGGYTQYADSVKGRFTISRDNSKNTLYLQMNSLRAEDTAMYYCARDRGLIAAAGGFDPWGQGTLVTVSS
VL: DIQMTQSPSSLSASVGDRVTITCRASQSIGIYLNWYQQKPGTAPKLLIYAASSLQSGVPSRFTGSGSGTDFTLTISSLQPDDFATYYCQRTYGRPLTFGGGTKVEIK
In the case of B6, the binding entry in test [2] and in test [4] was “binds” in each case.

B7: 559B-M0070-H10 (Fab, V domains shown)
VH: EVQLLESGGGLVQPGGSLRLSCAASGFTFSTYGMRWVRQAPGKGLEWVSVISPSGGKTNYADSVKGRFTISRDNSKNTLYLQMNSLRAEDTAVYYCARGRPDYYAMDVWGQGTTVTVSS
VL: QSALTQPPSASGAPGQRVTISCSGSSSNIGSNTVNWYQKLPGTAPKLLIYYNDRRPSGVPDRFSGSKSGNTASLTISGLQAEDEADYYCAAWDDSLSGPVFGGGTKLTVL
On to B7, for which the binding entry in test [1], in test [2], in test [3] and in test [4] was “binds” in each case.

B8: 559B-M0043-C06 (Fab, V domains shown)
VH: EVQLLESGGGLVQPGGSLRLSCAASGFTFSAYAMRWVRQAPGKGLEWVSYISSSGGETMYADSVKGRFTISRDNSKNTLYLQMNSLRAEDTAVYYCANGYGRIDYWGQGTLVTVSS
VL: QSVLTQPASVSGSPGQSITISCTGTSSDIGGYNYVSWYQQHPGKAPKLMIYEVSNRPSGVSNRFSGSKSGNTASLTISGLQAEDEADYYCSSYTSGSTRVFGTGTRVTVL
Turning to B8, the binding entry in test [2] and in test [4] was “binds” throughout.

B9: 559B-M0004-E08 (Fab, V domains shown)
VH: EVQLLESGGGLVQPGGSLRLSCAASGFTFSMYHMNWVRQAPGKGLEWVSSIYSSGGSTRYADSVKGRFTISRDNSKNTLYLQMNSLRAEDTAVYYCARGVRYGMDVWGQGTTVTVSS
VL: DIQMTQSPSSVSASVGDRVTITCRASQGISSWLAWYQQKPGKAPKLLIYAASSLQSGVPSRFSGSGSGTDFTLTISSLQPEDFATYYCQQANSFPITFGQGTRLEIK
Regarding B9, the binding entry in test [2] and in test [4] was “binds” each time.

B10: 559B-M0068-D01 (Fab, V domains shown)
VH: EVQLLESGGGLVQPGGSLRLSCAASGFTFSIYPMSWVRQAPGKGLEWVSGISPSGGKTAYADSVKGRFTISRDNSKNTLYLQMNSLRAEDTAVYYCARGQGRAVRGKLYYYGMDVWGQGTTVTVSS
VL: QSALTQPPSASQTPGQTVTISCSGSSSNIGTNNVNWYQQLPGTAPKLLISSHHRRPSGVPDRFSASKSGTSASLAISGLQSEDEADYYCAAWDDSLNGPVFGGGTKLTVL
For the molecule B10, the binding result in test [2] and in test [4] was “binds” in each case.

B11: 559B-M0065-B10 (Fab, V domains shown)
VH: EVQLLESGGGLVQPGGSLRLSCAASGFTFSKYFMTWVRQAPGKGLEWVSWISSSGGYTNYADSVKGRFTISRDNSKNTLYLQMNSLRAEDTAVYYCARGAYYYDAFDIWGQGTMVTVSS
VL: DIQMTQSPSSLSASVGDRVTITCRASQSIAIFLNWYQQTPGKPPKLLIYGASTLQSGVPSRFSGSGSGADFTLTISNLQLEDFTTYYCQQSYSTLYTFGQGTKLEIK
In the case of B11, the binding entry in test [2] and in test [4] was “binds” throughout.
